Patent publication EP1790655B1, “Biologically active peptides” (CMS Peptides Patent Holding Company Limited, priority 2001, dated 2003)
Like-named read-outs stand apart in the source and are kept apart here. At least one peptide structure holds a part that was inferred or is arguable (an end, a ring closure or a residue). Marks after values point to notes of the source that are not given here. Some entries repeat one wording, which the source may state once for all of them. Residues, ends and D or L forms follow the SMILES beside them.

Columns and labels:
[1] = system: secretion of interleukin-2 (IL-2) by T lymphocytes; assay: T lymphocyte IL-2 secretion test (HT-2 cell bioassay of spleen cell supernatant); format: in vivo, BALB/c Mice; conditions: IFN-γ, IL-2 3×10^5IU/kg/day, X±SD
[2] = system: Sheep red blood cells (SRBC); assay: humoral immunity (SRBC hemolysis index) of mice bearing transplanted B16 melanoma; format: in vivo, C57BL/6 mice; conditions: 30 days, SRBC on the 27th day
mononuclear phagocyte = assay: carbon particle clearance test, phagocytosis function of mononuclear phagocyte; format: in vivo, BALB/c Mice; conditions: IFN-γ, IL-2 3×10^5IU/kg/day, X±SD
NK cell [3] = assay: NK cell cytotoxicity activity test (spleen cells against YAC-1 target cells, MTT) after in vivo dosing; set-up: species or system BALB/c Mice; conditions: IFN-γ, IL-2 3×10^5IU/kg/day, X±SD
anti-SRBC antibody = assay: Sheep Red Blood Cell (SRBC) hemolysis test, antibody formation; format: in vivo, BALB/c mice; conditions: IFN-γ, IL-2 3×10^5IU/kg/day, SRBC i.p. on day 12, X±SD
T lymphocyte = T lymphocyte transformation test (ConA-stimulated spleen cells, MTT) after in vivo dosing of healthy mice; set-up: species or system BALB/c Mice; conditions: IFN-γ, IL-2 3×10^5IU/kg/day, X±SD
NK cell [4] = assay: NK cell activity in mice with ascitic fluid type liver cancer H22; format: in vivo, BALB/c mice; conditions: 15 days after implantation of H22
spleen = assay: immunity organ weight test, spleen; format: in vivo, BALB/c Mice; conditions: X±SD
[5] = body weight of rats on high nutrition diet (obesity induced by over-feeding); format: in vivo, Sprague-Dawley (SD) rats
thymus gland = assay: immunity organ weight test, thymus gland; format: in vivo, BALB/c Mice; conditions: IFN-γ, IL-2 3×10^5IU/kg/day, X±SD
[6] = system: Masugi nephritis rat model; conditions: for urine protein level: 24 hours urine; for Serum creatinine level / spleen index (mean spleen weight / mean body weight): after three weeks of treatment, hydrocortisone 3.3mg/kg/day (halved after first week) i.p.; for renal pathological microscopic examination: peptides 50µg/kg/day i.p. for 3 weeks, 6 heaviest kidneys per group
[7] = peptide 50µg/kg/day i.p. once per day for 15 days
[8] = peptide 5µg/kg/day i.p. once per day for 15 days
[9] = peptide 500µg/kg/day i.p. once per day for 15 days
[10] = peptide 0.5µg/kg/day i.p. once per day for 15 days
[11] = Week 1, peptides 50µg/kg/day, hydrocortisone 3.3mg/kg/day i.p. once per day
[12] = Week 2, peptides 50µg/kg/day i.p. once per day, hydrocortisone 3.3mg/kg/day, dose halved after the first week
[13] = Week 3, peptides 50µg/kg/day i.p. once per day, hydrocortisone 3.3mg/kg/day, dose halved after the first week

In the case of `CC(C)[C@H](NC(=O)[C@H](Cc1ccccc1)NC(=O)[C@H](CC(N)=O)NC(=O)[C@@H](N)Cc1ccccc1)C(=O)N1CCC[C@H]1C(=O)N1CCC[C@H]1C(=O)O` [CMS003, Phe Asn Phe Val Pro Pro] (H-FNFVPP-OH), the “Sample IL-2 activity (T lymphocyte secreting IL-2)” value (shortened to “Sample IL-2 activity”) [1, 7] was 86±9*^ IU, the Hemolysis index ([2]; 0.5µg/kg i.p. once per day) was 61.6±26.9*^$ and the Hemolysis index ([2]; 5µg/kg i.p. once per day) was 37.2±15.9*^$. The Hemolysis index ([2]; 50µg/kg i.p. once per day) was 38.7±13.5*^$, the phagocytotic index (mononuclear phagocyte; [8]) was 6.9±0.9*^ and the phagocytotic index (mononuclear phagocyte; [9]) was 6.6±0.7. The “NK cell activity index” value (NK cell [3]; [7]) was 85±6 %, the “Sample serum index (anti-SRBC antibody formation)” value (shortened to “Sample serum index”) (anti-SRBC antibody; [10]) was 2±1 Unit and the “Sample serum index” value (anti-SRBC antibody; [8]) was 91±24*^@ Unit. The “Sample serum index” value (anti-SRBC antibody; [7]) was 52±11 Unit, the “Sample serum index” value (anti-SRBC antibody; [9]) was 96±18*^@ Unit and the “stimulation index (T lymphocyte transformation)” value (from here on “stimulation index”) (T lymphocyte; [8]) was 1.6±0.2. The “stimulation index” value (T lymphocyte; [7]) was 2.2±0.5*^@^ and the NK activity index (NK cell [4]; 50µg/kg i.p. once per day) was 37.9±14.5*^^$ %.

For `CC(C)[C@H](NC(=O)[C@H](C)NC(=O)[C@H](CCCNC(=N)N)NC(=O)[C@@H]1CCCN1C(=O)[C@H](C)NC(=O)[C@H](CC(=O)O)NC(=O)[C@H](CC(=O)O)NC(=O)CNC(=O)[C@H](C)N)C(=O)N[C@@H](Cc1ccccc1)C(=O)O` [CMS007], the “Sample IL-2 activity” value [1, 8] was 64±12 IU, the “Sample IL-2 activity” value [1, 9] was 86±15*^ IU and the “Spleen index (spleen weight/body weight)” value (spleen; [9]) was 0.32±0.05 %. For the same compound, the “Sample serum index” value (anti-SRBC antibody; [8]) was 122±12*^@^ Unit, the “Sample serum index” value (anti-SRBC antibody; [9]) was 69±17*^@ Unit and the “stimulation index” value (T lymphocyte; [8]) was 1.7±0.1. The “stimulation index” value (T lymphocyte; [9]) was 1.6±0.1.

In the case of `CC[C@H](C)[C@H](NC(=O)[C@H](CO)NC(=O)[C@@H]1CCCN1)C(=O)N[C@H](C(=O)NCC(=O)N[C@@H](CCCNC(=N)N)C(=O)N1CCC[C@H]1C(=O)N[C@@H](CCCNC(=N)N)C(=O)N[C@@H](Cc1c[nH]cn1)C(=O)N[C@@H](CCC(N)=O)C(=O)NCC(=O)N[C@H](C(=O)N[C@@H](CCSC)C(=O)O)C(C)C)C(C)C` [CMS015] (H-PSIVGRPRHQGVM-OH), the “Sample IL-2 activity” value [1, 9] was 85±17*^ IU, the “Spleen index (spleen weight/body weight)” value (spleen; [8]) was 0.38±0.15 % and the “Spleen index (spleen weight/body weight)” value (spleen; [9]) was 0.36±0.07 %. It also gave a body weight ([5]; Female n=5, Pre-treatment, CMS015 300µg/kg/day i.m.) of 129.2 ± 3.3 g, a body weight ([5]; Female n=5, Week 1 of treatment, 300µg/kg/day i.m.) of 157.8 ± 8.3 g and a body weight ([5]; Female n=5, Week 2 of treatment, 300µg/kg/day i.m.) of 176.0 ± 11.2 g. For the same compound, the body weight ([5]; Female n=5, Week 3 of treatment, 300µg/kg/day i.m.) was 196.0 ± 10.5 g, the body weight ([5]; Female n=5, Week 4 of treatment, 300µg/kg/day i.m.) was 212.0 ± 13.5 g and the body weight ([5]; Female n=5, Week 5 of treatment, 300µg/kg/day i.m.) was 221.4 ± 13.2 g. The body weight ([5]; Female n=5, Week 6 (injection stopped after week 5)) was 235.6 ± 16.3 g, the body weight ([5]; Female n=5, Week 7 (injection stopped after week 5)) was 242.2 ± 18.8 g and the body weight ([5]; Female n=5, Week 8 (injection stopped after week 5)) was 252.8 ± 22.5 g. The body weight ([5]; Male n=5, Pre-treatment, CMS015 300µg/kg/day i.m.) was 145.6 ± 8.5 g, the body weight ([5]; Male n=5, Week 1 of treatment, 300µg/kg/day i.m.) was 183.8 ± 10.6 g and the body weight ([5]; Male n=5, Week 2 of treatment, 300µg/kg/day i.m.) was 220.6 ± 12.2 g. The body weight ([5]; Male n=5, Week 3 of treatment, 300µg/kg/day i.m.) was 239.0 ± 16.0 g, the body weight ([5]; Male n=5, Week 4 of treatment, 300µg/kg/day i.m.) was 258.2 ± 18.1 g and the body weight ([5]; Male n=5, Week 5 of treatment, 300µg/kg/day i.m.) was 268.8 ± 17.7 g. It also gave a body weight ([5]; Male n=5, Week 6 (injection stopped after week 5)) of 299.4 ± 21.2 g, a body weight ([5]; Male n=5, Week 7 (injection stopped after week 5)) of 310.4 ± 25.9 g and a body weight ([5]; Male n=5, Week 8 (injection stopped after week 5)) of 337.4 ± 30.6 g. For the same compound, the “NK cell activity index” value (NK cell [3]; [7]) was 78±8 %, the “Sample serum index” value (anti-SRBC antibody; [10]) was 13±4 Unit and the “Sample serum index” value (anti-SRBC antibody; [8]) was 94±37*^@ Unit. For the same compound, the “Sample serum index” value (anti-SRBC antibody; [7]) was 54±9*^@ Unit, the “Sample serum index” value (anti-SRBC antibody; [9]) was 136±22*^@^ Unit and the “stimulation index” value (T lymphocyte; [9]) was 1.9±0.3*^@^. For the same compound, the “Thymus gland index (thymus weight/body weight)” value (thymus gland; [8]) was 0.20±0.08 %.

In the case of `NC(=O)C[C@H](NC(=O)[C@@H](N)Cc1ccccc1)C(=O)N[C@@H](CCC(=O)O)C(=O)N[C@@H](CCC(=O)O)C(=O)O` [CMS029, Phe Asn Glu Glu] (H-FNEE-OH), the “Spleen index (spleen weight/body weight)” value (spleen; peptide 50µg/kg/day i.p. once per day for 15 days, IFN-γ, IL-2 3×10^5IU/kg/day) was 0.42±0.04 %, the “NK cell activity index” value (NK cell [3]; [9]) was 87±4 % and the “Sample serum index” value (anti-SRBC antibody; [10]) was 18±7 Unit. For the same compound, the “Sample serum index” value (anti-SRBC antibody; [8]) was 147±23*^@^ Unit, the “Sample serum index” value (anti-SRBC antibody; [7]) was 143±13*^@^ Unit and the “Sample serum index” value (anti-SRBC antibody; [9]) was 115±22*^@^ Unit. The “stimulation index” value (T lymphocyte; [9]) was 1.7±0.3, the “Thymus gland index (thymus weight/body weight)” value (thymus gland; [8]) was 0.21±0.03 % and the “Thymus gland index (thymus weight/body weight)” value (thymus gland; [7]) was 0.18±0.05 %. For the same compound, the “Thymus gland index (thymus weight/body weight)” value (thymus gland; [9]) was 0.22±0.04*^@^ %.

Compound `CSCC[C@H](NC(=O)[C@H](CCC(=O)O)NC(=O)[C@H](CCC(=O)O)NC(=O)[C@@H](N)Cc1ccccc1)C(=O)O` [CMS030, Phe Glu Glu Met] (H-FEEM-OH) has a urine protein level [6, 11] of 5.4 ± 3.4 mg, a urine protein level [6, 12] of 9.5 ± 16.2 mg and a urine protein level [6, 13] of 2.4 ± 1.5 mg. The Serum creatinine level ([6]; peptides 50µg/kg/day) was 93 ± 1 µmol/L, the “spleen index (mean spleen weight / mean body weight)” value ([6]; peptides 50µg/kg/day) was 3.0±0.5 x10-3 and the “renal pathological microscopic examination” value [6] was “all pathological parameters of all rats were normal”. For the same compound, the “Spleen index (spleen weight/body weight)” value (spleen; [8]) was 0.64±0.09 %, the phagocytotic index (mononuclear phagocyte; [7]) was 6.3±0.5 and the “NK cell activity index” value (NK cell [3]; [9]) was 91±5*^@^ %. The “Sample serum index” value (anti-SRBC antibody; [10]) was 19+7* Unit, the “Sample serum index” value (anti-SRBC antibody; [8]) was 158137*^@^ Unit and the “Sample serum index” value (anti-SRBC antibody; [7]) was 141±33*^@^ Unit. For the same compound, the “Thymus gland index (thymus weight/body weight)” value (thymus gland; [10]) was 0.24±0.05*^@^ %, the “Thymus gland index (thymus weight/body weight)” value (thymus gland; [8]) was 0.23±0.07*^ % and the “Thymus gland index (thymus weight/body weight)” value (thymus gland; [7]) was 0.25±0.04*^@^ %. The “Thymus gland index (thymus weight/body weight)” value (thymus gland; [9]) was 0.30±0.03*^@^ %.

For `N[C@@H](Cc1ccccc1)C(=O)N[C@@H](CCC(=O)O)C(=O)N[C@@H](CCC(=O)O)C(=O)N[C@@H](CCC(=O)O)C(=O)O` [CMS032, Phe Glu Glu Glu] (H-FEEE-OH), the “NK cell activity index” value (NK cell [3]; [9]) was 87±5 %, the “Sample serum index” value (anti-SRBC antibody; [8]) was 157±37*^@^ Unit and the “Sample serum index” value (anti-SRBC antibody; [7]) was 131±24*^@^ Unit. The NK activity index (NK cell [4]; 5µg/kg i.p. once per day) was 52.6±12.5*^^$& %, the NK activity index (NK cell [4]; 50µg/kg i.p. once per day) was 41.0±18.7*^^$& % and the “Thymus gland index (thymus weight/body weight)” value (thymus gland; [10]) was 0.21±0.06 %. The “Thymus gland index (thymus weight/body weight)” value (thymus gland; [8]) was 0.29±0.04*^@^ %, the “Thymus gland index (thymus weight/body weight)” value (thymus gland; [7]) was 0.27±0.03*^@^ % and the “Thymus gland index (thymus weight/body weight)” value (thymus gland; [9]) was 0.25±0.03*^@^ %.

For `NC(=O)CC[C@H](NC(=O)[C@@H](N)Cc1ccccc1)C(=O)N1CCC[C@H]1C(=O)N[C@@H](CO)C(=O)N[C@@H](Cc1ccccc1)C(=O)O` [CMS036, Phe Gln Pro Ser Phe] (H-FQPSF-OH), the urine protein level [6, 11] was 7.9 ± 5.8 mg, the urine protein level [6, 12] was 5.0+7.1* mg and the urine protein level [6, 13] was 1.3 ± 0.9 mg. For the same compound, the Serum creatinine level ([6]; peptides 50µg/kg/day) was 80 ± 1 µmol/L, the “spleen index (mean spleen weight / mean body weight)” value ([6]; peptides 50µg/kg/day) was 3.4±0.8 x10-3 and the “renal pathological microscopic examination” value [6] was “all pathological parameters of all rats were normal”. The “Spleen index (spleen weight/body weight)” value (spleen; [9]) was 0.40±0.03 %, the phagocytotic index (mononuclear phagocyte; [10]) was 6.2±0.3 and the “NK cell activity index” value (NK cell [3]; [8]) was 75±9 %. The “NK cell activity index” value (NK cell [3]; [9]) was 88±7 %, the “Sample serum index” value (anti-SRBC antibody; [10]) was 20±6 Unit and the “Sample serum index” value (anti-SRBC antibody; [8]) was 179±34*^@^ Unit. The “Sample serum index” value (anti-SRBC antibody; [7]) was 118±11*^@^ Unit, the “stimulation index” value (T lymphocyte; [7]) was 1.0±0.1 and the “Thymus gland index (thymus weight/body weight)” value (thymus gland; [8]) was 0.25±0.04*^@^ %. The “Thymus gland index (thymus weight/body weight)” value (thymus gland; [7]) was 0.22±0.02*^@^ % and the “Thymus gland index (thymus weight/body weight)” value (thymus gland; [9]) was 0.18±0.02 %.
